Assay results reported in US5925730A (Ferring BV, priority 1997, dated 1999).

Experiment: general procedure: Boc solid-phase peptide synthesis; MBHA resin (Bachem), 0.54 mmol/g; DIC/HOBt
Details: whole synthesis, capillary zone electrophoresis (CZE), scale of the general procedure about 0.50 gram of resin

Substance	final purity (method not given)
Ac-β-D-2Nal-D-4Cpa-D-3Pal-Ser-4Aph(hydroorotyl)-D-4Amf(carbamoyl)-Leu-Lys(isopropyl)-Pro-D-Ala-NH2	greater than 99%
PEPTIDE1{[ac].[D-2Nal].[D-4Cpa].[D-3Pal].S.[4Aph(Hor)].[D-4Aph(Cbm)].L.[ILys].P.[dA].[am]}$$$$V2.0	about 98%

HELM strings list residues between dots; [ac] is acetyl, [am] amide, other brackets name non-standard units.
